These are yes or no findings as the source states them, for the method shown. Binding seen in cells or lysates may run through a third protein. Some binding calls cover weakened binding; strength is not graded here.

Chains of the proteins cited; added tags and fusions are not shown. Residues count along the entry.
UniProt P46531, residues 1754-2555: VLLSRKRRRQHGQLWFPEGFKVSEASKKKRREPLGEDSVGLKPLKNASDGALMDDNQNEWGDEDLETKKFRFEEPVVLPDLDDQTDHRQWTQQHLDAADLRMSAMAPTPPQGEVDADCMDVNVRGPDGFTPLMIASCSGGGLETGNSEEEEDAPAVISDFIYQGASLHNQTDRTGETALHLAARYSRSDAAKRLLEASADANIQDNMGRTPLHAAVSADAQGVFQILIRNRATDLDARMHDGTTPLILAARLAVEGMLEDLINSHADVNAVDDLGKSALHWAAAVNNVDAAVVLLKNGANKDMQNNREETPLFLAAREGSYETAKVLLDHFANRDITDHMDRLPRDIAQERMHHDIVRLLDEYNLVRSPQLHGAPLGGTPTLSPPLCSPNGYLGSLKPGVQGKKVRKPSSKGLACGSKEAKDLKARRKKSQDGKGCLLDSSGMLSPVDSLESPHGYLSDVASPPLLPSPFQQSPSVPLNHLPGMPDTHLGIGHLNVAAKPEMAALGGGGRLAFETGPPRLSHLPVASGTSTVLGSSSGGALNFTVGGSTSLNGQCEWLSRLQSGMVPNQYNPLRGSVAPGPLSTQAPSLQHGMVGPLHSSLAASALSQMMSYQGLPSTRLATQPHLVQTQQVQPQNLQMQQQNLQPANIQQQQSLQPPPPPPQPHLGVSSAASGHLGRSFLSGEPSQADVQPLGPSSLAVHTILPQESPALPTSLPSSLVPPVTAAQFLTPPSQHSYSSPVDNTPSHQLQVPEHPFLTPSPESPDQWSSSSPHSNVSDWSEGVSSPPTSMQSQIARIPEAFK
UniProt P35249: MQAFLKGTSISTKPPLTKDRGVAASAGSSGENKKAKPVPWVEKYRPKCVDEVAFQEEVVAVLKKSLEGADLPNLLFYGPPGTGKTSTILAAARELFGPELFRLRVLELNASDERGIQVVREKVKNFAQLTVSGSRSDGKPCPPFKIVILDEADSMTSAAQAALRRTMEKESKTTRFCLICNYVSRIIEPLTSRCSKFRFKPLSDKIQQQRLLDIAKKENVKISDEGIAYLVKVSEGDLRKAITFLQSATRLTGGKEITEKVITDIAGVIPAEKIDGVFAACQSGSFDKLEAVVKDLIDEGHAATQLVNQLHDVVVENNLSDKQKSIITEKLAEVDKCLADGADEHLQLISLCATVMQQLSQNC
UniProt P49841: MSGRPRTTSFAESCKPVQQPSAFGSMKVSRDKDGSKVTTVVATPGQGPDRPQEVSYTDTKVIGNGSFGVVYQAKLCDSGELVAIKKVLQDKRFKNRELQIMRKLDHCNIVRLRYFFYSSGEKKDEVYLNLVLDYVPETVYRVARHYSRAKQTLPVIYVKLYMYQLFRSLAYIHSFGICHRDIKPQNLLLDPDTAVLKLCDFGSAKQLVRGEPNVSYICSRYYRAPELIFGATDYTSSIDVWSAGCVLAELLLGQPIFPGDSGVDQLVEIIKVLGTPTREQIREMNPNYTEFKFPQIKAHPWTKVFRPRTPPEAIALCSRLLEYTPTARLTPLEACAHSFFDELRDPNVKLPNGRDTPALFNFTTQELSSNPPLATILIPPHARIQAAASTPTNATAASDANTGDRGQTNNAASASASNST
UniProt P49336: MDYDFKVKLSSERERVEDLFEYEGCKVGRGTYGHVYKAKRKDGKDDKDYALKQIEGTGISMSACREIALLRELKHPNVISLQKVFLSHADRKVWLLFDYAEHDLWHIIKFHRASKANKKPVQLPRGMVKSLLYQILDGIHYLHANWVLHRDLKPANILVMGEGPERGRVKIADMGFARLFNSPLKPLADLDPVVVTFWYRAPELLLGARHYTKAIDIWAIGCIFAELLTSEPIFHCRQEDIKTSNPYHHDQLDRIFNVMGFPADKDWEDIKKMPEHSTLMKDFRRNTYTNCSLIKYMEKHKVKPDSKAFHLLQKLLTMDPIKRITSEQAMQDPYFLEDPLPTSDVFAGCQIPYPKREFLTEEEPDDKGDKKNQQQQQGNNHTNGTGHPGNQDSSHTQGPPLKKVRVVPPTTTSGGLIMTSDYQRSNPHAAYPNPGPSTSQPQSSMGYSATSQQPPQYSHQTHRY
UniProt Q13233: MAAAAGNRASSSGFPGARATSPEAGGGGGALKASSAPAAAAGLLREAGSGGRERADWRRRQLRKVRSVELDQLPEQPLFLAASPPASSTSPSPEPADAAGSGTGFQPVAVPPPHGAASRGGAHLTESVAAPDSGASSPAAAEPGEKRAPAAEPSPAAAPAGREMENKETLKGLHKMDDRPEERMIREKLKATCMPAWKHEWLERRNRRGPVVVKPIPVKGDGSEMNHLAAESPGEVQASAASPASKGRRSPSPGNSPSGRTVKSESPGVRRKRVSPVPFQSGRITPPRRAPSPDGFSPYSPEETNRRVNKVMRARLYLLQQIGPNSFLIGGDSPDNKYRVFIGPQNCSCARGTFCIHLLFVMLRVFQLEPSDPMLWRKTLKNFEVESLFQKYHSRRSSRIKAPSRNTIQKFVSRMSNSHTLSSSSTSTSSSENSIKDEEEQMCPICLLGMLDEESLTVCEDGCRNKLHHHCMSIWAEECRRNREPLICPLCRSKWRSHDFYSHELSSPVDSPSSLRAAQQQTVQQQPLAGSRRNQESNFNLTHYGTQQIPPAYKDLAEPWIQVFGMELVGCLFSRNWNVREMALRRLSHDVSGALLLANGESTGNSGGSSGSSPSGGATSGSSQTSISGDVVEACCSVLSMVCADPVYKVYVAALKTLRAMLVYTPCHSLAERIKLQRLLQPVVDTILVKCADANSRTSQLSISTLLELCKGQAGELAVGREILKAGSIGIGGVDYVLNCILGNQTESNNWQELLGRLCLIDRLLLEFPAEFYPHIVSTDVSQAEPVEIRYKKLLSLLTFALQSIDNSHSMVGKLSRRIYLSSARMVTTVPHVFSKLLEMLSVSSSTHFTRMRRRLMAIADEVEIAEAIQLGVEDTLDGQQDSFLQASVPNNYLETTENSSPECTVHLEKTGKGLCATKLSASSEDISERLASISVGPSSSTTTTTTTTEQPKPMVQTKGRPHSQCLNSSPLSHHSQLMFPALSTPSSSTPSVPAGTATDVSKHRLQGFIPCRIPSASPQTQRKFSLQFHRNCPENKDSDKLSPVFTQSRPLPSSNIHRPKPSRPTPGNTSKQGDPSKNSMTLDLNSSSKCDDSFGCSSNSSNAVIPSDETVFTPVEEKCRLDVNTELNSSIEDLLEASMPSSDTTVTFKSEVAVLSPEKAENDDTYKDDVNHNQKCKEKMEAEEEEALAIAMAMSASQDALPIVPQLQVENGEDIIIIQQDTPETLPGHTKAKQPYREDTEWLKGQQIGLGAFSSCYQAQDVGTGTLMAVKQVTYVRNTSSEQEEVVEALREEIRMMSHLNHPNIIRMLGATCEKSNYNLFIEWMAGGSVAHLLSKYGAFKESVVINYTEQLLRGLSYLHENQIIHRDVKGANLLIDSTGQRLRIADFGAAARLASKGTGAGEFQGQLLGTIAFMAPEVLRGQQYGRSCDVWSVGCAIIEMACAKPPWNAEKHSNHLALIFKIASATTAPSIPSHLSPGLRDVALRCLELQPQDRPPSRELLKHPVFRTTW

For this assay, the target named is endogenous Notch1 intracellular domain (NICD1) (human (endogenous in A549)) (UniProt P46531). The experiment in a line: co-IP; lysates in NP-40-containing lysis buffer; FLAG or HA affinity agarose (or precipitation of endogenous RFC4, Notch1 or NICD1) overnight at 4 °C; wash 150 mM NaCl, 10 mM HEPES pH 7.4, 0.1% NP-40; cells with RFC4, CDK8, Notch1 or FBXW7 silenced, knocked out or overexpressed.
Turning to “endogenous RFC4 (from UniProt P35249 1-363)”, the binding result was “binds”.

Turning to “GSK-3β (from UniProt P49841 1-420) (enzyme)”, the binding entry is on record as “binds”.

“endogenous CDK8 (from UniProt P49336 1-464) (enzyme)”: the binding entry was “binds”.

For “MEKK1 (from UniProt Q13233 1-1512) (enzyme)”, the binding result was “binds”.
